Series [1] deals with CD3 complex on Jurkat cells (Homo sapiens). Kind of series: flow cytometry. Conditions: protein on the cell surface, protein details: Jurkat ATCC TIB-152, single-stranded DNA. For orientation: In flow cytometry, cells or beads pass a laser one at a time.
The subject of series [2] is IgG1 Fc (counter target) (Homo sapiens). Briefly: SPR. Conditions: purified recombinant protein, protein details: AcroBiosystems, single-stranded DNA.
In series [3] the test system is CD3 complex on EL4 cells (Mus musculus). Briefly: flow cytometry. Conditions: dose-dependent staining 3-300 nM, protein on the cell surface, protein details: EL4 ATCC CRL-2638, label: 5'-biotin-TEG, single-stranded DNA.
Where [4] appears, read: loss of specificity, label: 5'-biotin-TEG, variant of CELTIC_core.
The mark [5] stands for this setting: 50 and 100 nM, SELEX buffer 5% FBS, 37 C, label: 5'-biotin-TEG, variant of CELTIC_core.
The mark [6] stands for this setting: _ is abasic C3 spacer, loss of binding, 50 and 100 nM, label: 5'-biotin-TEG, variant of CELTIC_core.
[7] abbreviates: higher specificity to Jurkat than Ramos, label: 5'-biotin-TEG.
Where [8] appears, read: preferential binding vs Ramos, label: 5'-biotin-TEG.

Chains of the proteins cited; added tags and fusions are not shown. Chains listed by the source or under a name are the forms on record and can include a tag or linker.
CD3 complex on EL4 cells (Mus musculus), one chain, as listed by the source, chain 1 of 3: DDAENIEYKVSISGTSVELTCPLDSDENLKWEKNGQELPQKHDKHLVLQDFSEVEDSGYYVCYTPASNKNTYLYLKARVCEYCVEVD
CD3 complex on EL4 cells (Mus musculus), one chain, as listed by the source, chain 3 of 3: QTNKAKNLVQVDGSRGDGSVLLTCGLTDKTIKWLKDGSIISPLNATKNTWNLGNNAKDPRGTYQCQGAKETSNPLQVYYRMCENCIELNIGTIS
CD3 complex on EL4 cells (Mus musculus), one chain, as listed by the source, chain 2 of 3: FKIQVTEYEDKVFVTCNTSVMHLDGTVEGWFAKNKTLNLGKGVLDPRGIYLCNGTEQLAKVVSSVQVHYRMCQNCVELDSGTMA

The values below come from US20220251562.

For some assays here: Results from cells or extracts need not show a direct contact. For some assays here: For at least one entry, the source does not settle the construct or the ends of the probe. For some assays here: No signal at the amounts used counts as a negative. For some assays here: The comparison behind a weaker result is the experiment's own reference, which may not be listed here.

For the sequence GGGTTTGGCACCGGGCCTGGCGC [CELTIC_core_1], the binding result in series [1] (setting [4]) is recorded as “binds”.
In the case of GGGTTTGGCACGGGCCTGGC [CELTIC_core_24t], the binding result in series [2] (_ is abasic C3 spacer (position 11), 5'-HEG, 3'-3' dT, no interaction observed, label: 5'-biotin-TEG, variant of CELTIC_core_24) was “no binding”.
Regarding GGGTTTGGCGGTGGGCCTGGC [CELTIC_core_5], the binding result in series [1] (setting [5]) was “no binding”.
For the sequence GGGTTTGGCTCGGGCCTGGC [CELTIC_core_23], the binding result in series [1] (_ is abasic C3 spacer at position 10, 5'-HEG, reduced affinity, 50 and 100 nM, label: biotin, variant of CELTIC_core) is listed as “binds more weakly”.
In the case of GGGTTTGGCACGGGCCTGGC [CELTIC_core_24], the binding result in series [1] (_ is abasic C3 spacer (position 11), 5'-HEG, equal or improved affinity and specificity vs core, label: 5'-biotin-TEG, variant of CELTIC_core) was “binds”; in series [2] (_ is abasic C3 spacer (position 11), 5'-HEG, no interaction observed, label: 5'-biotin-TEG, variant of CELTIC_core), “no binding”.
As for GGGTTTGGCACCGGCCTGGC [CELTIC_core_11], the binding result in series [1] (setting [6]) is listed as “no binding”.
Turning to GGGTTTGGCATGGGCCTGGC [CELTIC_core_25], the binding result in series [1] (_ is abasic C3 spacer at position 12, 5'-HEG, reduced affinity, 50 and 100 nM, label: biotin, variant of CELTIC_core) is given as “binds more weakly”.
Consider “CGGCAGGGGTTTGGCTCCGGGTCTGGCGAACTGGCTGAGA [CELTIC_5s]”, for which, in series [1] (setting [7]), the binding result was “binds”.
For “TAGGGAAGAGAAGGACATATGATGAGGGGTTTGGCATCGGGCCTGGCGCCATTCAAGCTATGCTTGACTAGTACATGACCACTTGA [CELTIC_2]”, the binding result in series [1] (setting [8]) is recorded as “binds”.
Regarding GGGTTTGGCACCGGCCTGGC [CELTIC_core_10], in series [1] (setting [6]), the binding result was “no binding”.
“TTTGGGTTTGGCATCGGGCCTGGC [CELTIC_core_T]”: the binding result in series [1] (binding properties as core, label: 5'-biotin-TEG, variant of …) is on record as “binds”.
Turning to GGGTTTGGCATCGGGGCTGGC [CELTIC_core_39], in series [1] (5'-HEG, reduced affinity, 50 and 100 nM, label: biotin, variant of CELTIC_core), the binding result was “binds more weakly”.
For “TTTCCGGGTGGGGGTTTGGCACCGGGCCTGGCGCAGGGATTCG [CELTIC_1s]”, the binding result in series [1] (preferential binding vs Ramos, not competed by OKT3, UCHT1, HIT3a, label: 5'-biotin-TEG, variant of CELTIC_1) was “binds”; in series [3] (variant of CELTIC_1) it was “binds”.
With “GGTCGGGTGCTACTGAGCGATTGGCTTTCCGGACTGGGGA [CELTIC_21s]”, the binding result in series [1] (specificity improved by removing flanks, label: 5'-biotin-TEG, variant of CELTIC_21) is given as “binds”.
“GCGTAAGGGTTTGGCAGCGGGCCTGGCGGAACGCGTGTAT [CELTIC_3s]”: the binding result in series [1] (specificity improved by removing flanks, label: 5'-biotin-TEG, variant of CELTIC_3) is recorded as “binds”.
Take GGGTTTGGCACGGGCTGGC [CELTIC_core_42t]: the binding result in series [1] (_ is abasic C3 spacer (positions 11 and 16), 5'-HEG, 3'-3' dT, label: 5'-biotin-TEG, variant of CELTIC_core_42) is given as “binds”; in series [2] (_ is abasic C3 spacer (positions 11 and 16), 5'-HEG, 3'-3' dT, no interaction observed, label: 5'-biotin-TEG, variant of CELTIC_core_42), “no binding”.
Turning to “TTTGGGTTTGGCACCGGGCCTGGC [CELTIC_core_6]”, the binding result in series [1] (setting [5]) was “no binding”.
Consider GGGTTTGGACCGGGCCTGGC [CELTIC_core_9], for which the binding result in series [1] (setting [6]) is on record as “no binding”.
With “GCATCGAAATGGGGTTGGCACCGGGCCTGGCGAATTGGAT [CELTIC_9s]”, the binding result in series [1] (setting [7]) and in series [3] was “binds” throughout.
“TACCGCGGGGATTGGCTCCGGGCCTGGCGTCGTAATCTGA [CELTIC_19s]”: the binding result in series [1] (setting [7]) and in series [3] was “binds” each time.
Consider “AAGGGATTGGCGTCGGGCCTGGCGTAAGGAGGCTATGCTC [CELTIC_6s]”, for which the binding result in series [1] (setting [7]) was “binds”.
As to GGGTTTGGCACCGGGCTGGC [CELTIC_core_12], the binding result in series [1] (_ is abasic C3 spacer (position 16), better affinity than core, reduced specificity, label: 5'-biotin-TEG, variant of CELTIC_core) is on record as “binds”; in series [2] (_ is abasic C3 spacer at position 16, NA, label: 5'-biotin-TEG, variant of CELTIC_core), “no binding”.
Regarding GGGTTTGGCATCGGGACTGGC [CELTIC_core_38], the binding result in series [1] (5'-HEG, no impact of C16A, label: 5'-biotin-TEG, variant of CELTIC_core) is given as “binds”.
Turning to “TAGGGAAGAGAAGGACATATGATCCGGGTGGGGGTTTGGCACCGGGCCTGGCGCAGGGATTCGTTGACTAGTACATGACCACTTGA [CELTIC_1]”, the binding result in series [1] (preferential binding vs CD3-negative Ramos, label: 5'-biotin-TEG) is reported as “binds”.
Regarding GGGTTTGGCATCGGGCCTGGCG [CELTIC_core_4], the binding result in series [1] (setting [4]) is given as “binds”.
Turning to “GAGGGGTTTGGCATCGGGCCTGGCGCCATTCAAGCTATGC [CELTIC_2s]”, the binding result in series [1] (specificity improved by removing flanks, label: 5'-biotin-TEG, variant of CELTIC_2) is given as “binds”.
In the case of GGGTTTGGCATCGGGTCTGGC [CELTIC_core_40t], the binding result in series [1] (5'-HEG, 3'-3' dT, label: 5'-biotin-TEG, variant of CELTIC_core_40) is reported as “binds”.
For GGGTTTGGCAACGGGCTGGC [CELTIC_core_44], in series [1] (5'-HEG, affinity loss vs core, label: 5'-biotin-TEG, variant of CELTIC_core), the binding result is listed as “binds more weakly”.
Take GGGTTTGGCACCGGGCCTGGC [CELTIC_core_2]: the binding result in series [1] (setting [5]) was “no binding”.
For the sequence GGGTTTGCACCGGGCCTGGC [CELTIC_core_8], the binding result in series [1] (setting [6]) is “no binding”.
In the case of GGGTTTGGCATCGGGCTGGC [CELTIC_core_29], the binding result is “binds” in series [1] (_ is abasic C3 spacer (position 16), 5'-HEG, equal or improved affinity and specificity vs core, label: 5'-biotin-TEG, variant of CELTIC_core); “no binding” in series [2] (_ is abasic C3 spacer (position 16), 5'-HEG, no interaction observed, label: 5'-biotin-TEG, variant of CELTIC_core).
“TAGGGAAGAGAAGGACATATGATGCGTAAGGGTTTGGCAGCGGGCCTGGCGGAACGCGTGTATTTGACTAGTACATGACCACTTGA [CELTIC_3]”: the binding result in series [1] (apparent, preferential over CD3-negative Ramos, label: 5'-biotin-TEG) is recorded as “binds”.
Regarding “GATGGAGGGTTTGGCGGTGGGCCTGGCAAGTTATCTCATA [CELTIC_11s]”, the binding result in series [1] (setting [7]) is “binds”.
GGGTTTGCACCGGGCCTGGC [CELTIC_core_7]: in series [1] (setting [6]), the binding result is given as “no binding”.
For “GGAGTGGAGTATTCCGGGTTTGGCATCGGGCCTGGCGAAG [CELTIC_4s]”, the binding result in series [1] (setting [7]) and in series [3] was “binds” in each case.
GGGTTTGGCATCGGGTCTGGC [CELTIC_core_40]: in series [1] (5'-HEG, improved affinity and specificity vs core, label: 5'-biotin-TEG, variant of CELTIC_core), the binding result is given as “binds”.
With GGGTTTGGCACGGGCTGGC [CELTIC_core_42], the binding result in series [2] (_ is abasic C3 spacer at positions 11 and 16, 5'-HEG, NA, label: biotin, variant of CELTIC_core) was “no binding”.
For GGGTTTGGCACCGGGCTGGC [CELTIC_core_13], in series [1] (_ is abasic C3 spacer, 50 and 100 nM, SELEX buffer 5% FBS, 37 C, label: 5'-biotin-TEG, variant of CELTIC_core), the binding result is listed as “no binding”.
“TAGGGAAGAGAAGGACATATGATGGTCGGGTGCTACTGAGCGATTGGCTTTCCGGACTGGGGATTGACTAGTACATGACCACTTGA [CELTIC_21]”: the binding result in series [1] (setting [8]) is “binds”.
